Experimental data as given in PubChem BioAssay AID2685 (National Center for Advancing Translational Sciences (NCATS), 2010).
Where “and” joins values, the source holds several entries; their conditions need not be identical. Equal values may be shown once. Some of the results follow. These are further read-outs of the screen, such as a control signal, another cell line or another target. No call is given for them. Compounds called inactive in the main read-out are mostly missing here. Words in brackets tell the shape of the fitted curve; partial curves, single points and poor fits give uncertain potencies.

Assay: qHTS Assay for Lipid Storage Modulators in Drosophila S3 Cells;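 for cell number change: cells counted by Cell Tracker Red CMTPX staining in the red channel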
Conditions: BODIPY lipid droplet fluorescence, 18-24 h; for cell number change: measured here: cell count max response, cells fed with added oleic acid
Method in brief: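 Drosophila S3 cells loaded with oleic acid (400 uM, as added) and compounds at several concentrations; lipid droplets imaged by 488-nm laser-scanning cytometry, 500–530 nm intensity and object ratio to cell channel. Percent activity normalized to 20 uM Triacsin C.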

[1] = measured here: lipid fluorescence (Fed channel) AC50, cells fed with added oleic acid
[2] = measured here: cell number channel AC50, cells fed with added oleic acid

Compound: CN(C)S(=O)(=O)c1ccc(NC(=O)c2cc(-c3cccs3)nc3ccccc23)cc1
- cell number change: 17.9%
- AC50 [1]: 8.2 µM [rising, partial curve]

Compound: CN(C)S(=O)(=O)n1cc(/C=C(\NC(=O)c2ccccc2Cl)C(=O)NCCCN2CCOCC2)c2ccccc21
- cell number change: 16.6%
- AC50 [1]: 18.4 µM [rising, partial curve]

Compound: CCOC(=O)c1cc(S(=O)(=O)NC2CCN(C(=O)OCC)CC2)cn1C
- AC50 [1]: 0.58 µM [falling, single point]

Compound: Cc1ccc(S(=O)(=O)c2nc(S(C)(=O)=O)sc2N2CCC3(CC2)OCCO3)cc1
- cell number change: 1.08%

Compound: O=C(CN1C(=O)c2ccccc2S1(=O)=O)N1CCc2ccccc21
- cell number change: 13.4%
- AC50 [1]: 2.31 µM [rising, partial curve]

Compound: COc1cccc(/C=C/C(=O)OCC(=O)Nc2cccc(S(=O)(=O)N3CCCCC3)c2)c1OC
- cell number change: 34.3%
- AC50 [2]: 8.2 µM [rising, partial curve, poor fit]
- AC50 [1]: 9.2 µM [rising, partial curve]

Compound: N#CCC(=O)Nc1ccc(C(=O)OCC(=O)NCCCc2ccccc2)cc1
- cell number change: 30.6%
- AC50 [2]: 10.3 µM [rising, partial curve]

Compound: CCCCn1c(N)c(N(Cc2ccccc2OC)C(=O)CCSC)c(=O)[nH]c1=O
- cell number change: 18.9%
- AC50 [1]: 5.17 µM [rising, full curve, poor fit]

Compound: Cc1nc2ccc(NC(=O)c3cccs3)cc2c(=O)n1Cc1ccc(Cl)cc1
- AC50 [2]: 1.64 µM [rising, partial curve]
- AC50 [1]: 0.82 µM [rising, partial curve]

Compound: Cc1cccc(NC(=S)N2N=CCC2c2ccccc2)c1 (centres undefined)
- cell number change: -12.8%
- AC50 [1]: 6.51 µM [rising, single point]

Compound: O=C(O)c1ccc(-n2nc(C(F)(F)F)c3c2CCCC3)cc1
- cell number change: -57%
- AC50 [2]: 29.1 µM [falling, single point] and 920 nM [falling, partial curve, poor fit]
- AC50 [1]: 29.1 µM [falling, single point]

Compound: CCOC(=O)C1CCCN(C(=O)c2ccc(CNc3c(N4CCC(C)CC4)c(=O)c3=O)cc2)C1 (centres undefined)
- cell number change: 2.7%
- AC50 [1]: 23.1 µM [falling, partial curve, poor fit]

Compound: COc1cccc(-c2nc3ccc(O)cc3c(=O)o2)c1
- cell number change: -17.1%

Compound: O=C(Nc1ccc(-c2nc3ccccc3[nH]2)cc1)c1ccc(N2C(=O)CCC2=O)cc1
- cell number change: -46%
- AC50 [2]: 32.6 µM [falling, single point]

Compound: Cc1cc(C)c2c(n1)SCC(=O)N2CC(=O)Nc1ccc(C)c(C)c1
- cell number change: -12.7%
- AC50 [1]: 0.461 µM [rising, full curve, poor fit]
